Reference: article PMC4348373
For at least one entry, the source does not settle the construct or the ends of the probe. Where cells or extracts were used, other partners may take part. At least one verdict rests on a figure or table, not on a statement of the authors.

Protein sequences, listed by entry. Tags and fused reporters are not part of them.
UniProt P25490, whole entry: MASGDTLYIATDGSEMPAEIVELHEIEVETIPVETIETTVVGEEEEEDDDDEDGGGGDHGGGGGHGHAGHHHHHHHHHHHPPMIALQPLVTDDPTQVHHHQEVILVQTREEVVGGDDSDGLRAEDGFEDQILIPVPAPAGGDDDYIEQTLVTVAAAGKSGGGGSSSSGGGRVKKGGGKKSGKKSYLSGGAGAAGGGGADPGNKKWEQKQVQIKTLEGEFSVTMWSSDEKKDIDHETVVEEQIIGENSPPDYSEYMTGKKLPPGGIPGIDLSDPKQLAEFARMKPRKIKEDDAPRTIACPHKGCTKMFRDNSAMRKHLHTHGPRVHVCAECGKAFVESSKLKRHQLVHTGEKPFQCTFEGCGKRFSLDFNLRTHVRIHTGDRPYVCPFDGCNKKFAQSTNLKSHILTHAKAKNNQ

Target: YY1 (HeLa nuclear extract) (human (HeLa)) (UniProt P25490)
Assay: pull-down + MS
Details: Pull-down: 25 mM Tris, 150 mM NaCl, pH 7.2, room temperature, 30 min, protein in an extract, label: 5'-biotin

Question: Does “CGTCTGGAACTCCCCTCAACGCTCTCACCATTTTGCCCCGCGAAGGCTAATCCGCCGCT (double strand) [Probe P (Probe b)]” bind?
Answer: binds
